Drawing on publication PMC9826262, “Discovery of Benzo[d]imidazole‐6‐sulfonamides as Bromodomain and Extra‐Terminal Domain (BET) Inhibitors with Selectivity for the First Bromodomain” (Chemmedchem, 2022), this text covers Papp for one compound.

This series in a line: in vitro. Conditions: PAMPA, pH 7.4. The procedure: Membrane permeability was estimated by the well‐validated parallel artificial membrane permeability assay (PAMPA) technique.[17, 26]
Parallel Artificial Membrane Permeability Assay (PAMPA). Donor solution (0.2 mM) was prepared by diluting 20 mM dimethyl sulfoxide (DMSO) compound stock solution using phosphate buffer (pH 7.4, 0.01 M). Filters were coated with 5 μL of a 1 % (w/v) dodecane solution of L‐α‐phosphatidylcholine. Donor solution (150 μL) was added to each well of the filter plate. To each well of the acceptor plate, 300 μL of solution (5 % DMSO in phosphate buffer) was added. […] The sandwich was incubated for 24 h at room temperature under gentle shaking. After the incubation time, the sandwich plates were separated and 250 μL of the acceptor plate was transferred to a UV quartz microtiter plate and measured by UV spectroscopy, using a Multiskan GO microplate spectrophotometer (Thermo Fisher Scientific) at 250–500 nm at a step of 5 nm. Reference solutions (250 μL) were prepared diluting the sample stock solutions to the same concentration as that with no membrane barrier.
In this equation, VR is the volume of the acceptor compartment (0.3 cm^3), VD is the donor volume (0.15 cm^3), A is the accessible filter area (0.24 cm^2), and t is the incubation time in seconds.
A general note: In PAMPA a lipid-coated filter parts donor from acceptor wells.

For the compound `NS(=O)(=O)c1cc(C(=O)O)c(NCc2ccco2)cc1Cl` [furosemide], the Papp – broadly, the rate of passage across a membrane or cell layer, normalised by area and donor concentration – at 24 h, 0.2 mM is 0.0101 ×10⁻⁶ cm/s.
